No constants are given. Whether binding was seen depends on the method and setting. Binding calls can cover weak binding; strength is not graded here.
Key:
[1] = target: Cdc2 (Drosophila melanogaster) (UniProt P23572); assay: two-hybrid; LexA-based yeast two-hybrid: LexA BD fusions (pHZ5-NRT, strain Y309) mated with B42 AD fusions (pJZ4-NRT, strain RFY231); pooled mating in two phases and library screening; LEU2 (growth without leucine, 0-3) and lacZ (X-Gal, 0-5) reporters on galactose and maltose medium, 30°C; interactions re-tested one-on-one
[2] = target: Cdc2c (Drosophila melanogaster) (UniProt P23573); assay: as above

Amino acid sequences for entries named in this document (tags omitted).
UniProt P23572: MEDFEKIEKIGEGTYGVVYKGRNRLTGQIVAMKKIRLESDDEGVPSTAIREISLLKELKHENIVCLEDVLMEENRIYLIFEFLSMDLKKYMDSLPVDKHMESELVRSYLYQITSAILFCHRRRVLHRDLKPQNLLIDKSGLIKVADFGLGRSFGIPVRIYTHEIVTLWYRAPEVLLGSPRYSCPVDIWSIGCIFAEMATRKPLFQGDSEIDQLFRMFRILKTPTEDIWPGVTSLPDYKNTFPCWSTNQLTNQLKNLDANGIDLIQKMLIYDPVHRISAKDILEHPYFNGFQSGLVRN
UniProt P23573: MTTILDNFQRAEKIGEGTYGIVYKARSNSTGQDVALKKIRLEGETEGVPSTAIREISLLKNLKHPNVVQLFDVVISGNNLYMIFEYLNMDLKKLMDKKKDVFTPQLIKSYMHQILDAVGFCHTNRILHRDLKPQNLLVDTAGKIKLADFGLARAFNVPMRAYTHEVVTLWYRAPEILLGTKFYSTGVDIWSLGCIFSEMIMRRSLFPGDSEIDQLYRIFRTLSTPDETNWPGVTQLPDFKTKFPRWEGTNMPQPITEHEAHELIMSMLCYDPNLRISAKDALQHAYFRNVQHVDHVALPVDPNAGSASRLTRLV

binding [1]: binds
binding [2]: binds
Substance: CG9790 (from UniProt Q9VHN1)
